Results are given in words; binding and its absence hold for the method and conditions named. For some of these results: Binding seen in cells or lysates may run through a third protein. Some entries that bind do so weakly or less than the wild type. For some of these results: Tags and fused reporters may be left off the sequences shown.
Key:
Cul4-GFP (S. pombe) = target: T1, Cul4-GFP (S. pombe) (UniProt O14122); assay: co-IP; S. pombe whole-cell extracts in lysis buffer (40 mM Tris-HCl pH 7.5, 1 mM EDTA, 10% glycerol, 0.1% NP-40, 300 mM NaCl); GFP antibody on Protein A/G Sepharose (Cul4-GFP) or Anti-Flag M2 Affinity Gel (Flag-tagged proteins), overnight at 4 °C; Ubc4 detected with anti-mUBE2D3; for Cul4 and Raf2 also with nuclease treatment
T1 sequence: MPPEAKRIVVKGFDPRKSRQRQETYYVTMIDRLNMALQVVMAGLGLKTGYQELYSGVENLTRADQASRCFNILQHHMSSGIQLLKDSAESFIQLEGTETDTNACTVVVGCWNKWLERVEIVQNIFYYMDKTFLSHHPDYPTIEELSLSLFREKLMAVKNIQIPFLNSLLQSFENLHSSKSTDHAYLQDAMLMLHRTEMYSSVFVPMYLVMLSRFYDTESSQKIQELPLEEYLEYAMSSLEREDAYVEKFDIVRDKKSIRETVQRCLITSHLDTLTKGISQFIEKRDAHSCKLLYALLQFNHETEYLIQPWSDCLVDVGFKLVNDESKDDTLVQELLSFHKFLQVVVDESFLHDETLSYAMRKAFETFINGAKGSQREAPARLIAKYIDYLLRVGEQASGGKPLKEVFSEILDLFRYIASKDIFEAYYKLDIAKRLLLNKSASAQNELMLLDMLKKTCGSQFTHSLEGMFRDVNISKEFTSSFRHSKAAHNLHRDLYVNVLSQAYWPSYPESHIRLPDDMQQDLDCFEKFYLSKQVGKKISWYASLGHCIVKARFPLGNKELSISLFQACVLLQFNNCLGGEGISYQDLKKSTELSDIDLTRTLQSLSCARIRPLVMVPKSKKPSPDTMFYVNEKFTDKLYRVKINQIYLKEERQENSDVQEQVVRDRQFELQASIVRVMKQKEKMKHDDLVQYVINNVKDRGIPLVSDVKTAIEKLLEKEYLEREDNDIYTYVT

Chains of the proteins cited; added tags and fusions are not shown.
UniProt O60016: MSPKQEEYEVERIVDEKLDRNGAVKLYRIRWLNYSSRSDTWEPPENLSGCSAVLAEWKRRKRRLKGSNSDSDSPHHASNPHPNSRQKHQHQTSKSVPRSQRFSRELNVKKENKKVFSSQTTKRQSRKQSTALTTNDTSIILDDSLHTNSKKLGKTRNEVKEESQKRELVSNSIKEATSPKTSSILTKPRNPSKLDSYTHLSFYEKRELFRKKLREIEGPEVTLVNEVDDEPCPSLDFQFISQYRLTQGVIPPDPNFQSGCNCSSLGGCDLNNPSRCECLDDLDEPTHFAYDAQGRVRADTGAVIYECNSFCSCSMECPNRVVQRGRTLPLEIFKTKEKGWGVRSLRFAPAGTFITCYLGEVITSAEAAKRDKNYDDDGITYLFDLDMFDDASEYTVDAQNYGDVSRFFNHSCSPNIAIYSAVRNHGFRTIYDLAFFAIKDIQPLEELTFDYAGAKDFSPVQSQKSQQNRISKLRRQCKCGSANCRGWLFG
UniProt P46595: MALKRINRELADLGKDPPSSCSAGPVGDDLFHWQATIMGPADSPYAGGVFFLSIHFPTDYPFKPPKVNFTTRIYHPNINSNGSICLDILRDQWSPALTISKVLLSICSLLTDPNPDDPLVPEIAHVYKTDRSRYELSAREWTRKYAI

Raf2-Flag (S. pombe) = target: T2, Raf2-Flag (S. pombe) (UniProt O74560); assay: as above
T2 sequence: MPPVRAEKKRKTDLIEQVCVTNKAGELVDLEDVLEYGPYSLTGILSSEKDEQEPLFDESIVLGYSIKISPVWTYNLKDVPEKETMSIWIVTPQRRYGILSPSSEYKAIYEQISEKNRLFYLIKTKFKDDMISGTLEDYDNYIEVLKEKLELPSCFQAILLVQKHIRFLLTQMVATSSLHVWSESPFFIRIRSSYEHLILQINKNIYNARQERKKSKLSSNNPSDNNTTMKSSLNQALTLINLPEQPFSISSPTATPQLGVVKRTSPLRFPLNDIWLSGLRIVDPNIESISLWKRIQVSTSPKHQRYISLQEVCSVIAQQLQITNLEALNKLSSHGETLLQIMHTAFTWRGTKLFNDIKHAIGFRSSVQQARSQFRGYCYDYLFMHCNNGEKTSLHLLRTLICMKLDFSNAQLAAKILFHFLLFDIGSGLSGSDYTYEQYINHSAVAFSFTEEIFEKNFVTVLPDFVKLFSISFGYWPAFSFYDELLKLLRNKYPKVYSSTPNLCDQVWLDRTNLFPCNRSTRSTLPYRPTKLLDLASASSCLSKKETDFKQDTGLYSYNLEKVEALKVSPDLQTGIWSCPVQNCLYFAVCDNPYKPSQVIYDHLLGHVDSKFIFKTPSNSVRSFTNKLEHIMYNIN

Flag-Raf1 (S. pombe) = target: T3, Flag-Raf1 (S. pombe) (UniProt O74910); assay: as above
T3 sequence: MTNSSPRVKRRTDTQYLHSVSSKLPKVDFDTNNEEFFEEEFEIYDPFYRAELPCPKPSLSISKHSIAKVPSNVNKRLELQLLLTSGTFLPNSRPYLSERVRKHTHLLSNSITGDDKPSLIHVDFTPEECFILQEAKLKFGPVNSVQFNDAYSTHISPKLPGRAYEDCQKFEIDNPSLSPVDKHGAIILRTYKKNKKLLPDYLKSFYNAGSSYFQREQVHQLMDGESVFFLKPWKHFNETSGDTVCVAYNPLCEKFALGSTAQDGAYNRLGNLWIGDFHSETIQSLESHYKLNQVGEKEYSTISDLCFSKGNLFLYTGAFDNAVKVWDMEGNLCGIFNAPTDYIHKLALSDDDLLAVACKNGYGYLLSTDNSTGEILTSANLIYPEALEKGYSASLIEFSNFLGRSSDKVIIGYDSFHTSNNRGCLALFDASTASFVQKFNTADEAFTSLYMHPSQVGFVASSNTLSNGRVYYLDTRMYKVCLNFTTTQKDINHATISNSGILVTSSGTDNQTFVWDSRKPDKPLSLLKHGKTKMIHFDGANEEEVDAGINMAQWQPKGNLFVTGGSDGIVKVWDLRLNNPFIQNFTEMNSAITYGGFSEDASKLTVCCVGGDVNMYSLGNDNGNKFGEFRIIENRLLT

[1] = target: recombinant Clr4 (6xHis-1xFlag-Clr4 and 6xHis-1xMyc-Clr4) (S. pombe) (UniProt O60016); assay: pull-down; Flag antibody on Protein A/G Sepharose; recombinant Flag-Clr4 and Myc-Clr4, 500 nM each, with 0, 50, 100 and 200 nM centromeric ncRNA, in lysis buffer (40 mM Tris-HCl pH 7.5, 1 mM EDTA, 10% glycerol, 0.1% NP-40, 250 mM NaCl), 4 °C, 3 h; Western blot with anti-Myc and anti-Flag; both purified

Row | Substance | binding (Cul4-GFP (S. pombe)) | binding (Raf2-Flag (S. pombe)) | binding (Flag-Raf1 (S. pombe)) | binding [1]
1 | E2 ubiquitin conjugating enzyme Ubc4 (from UniProt P46595 1-147) | binds | binds | binds | 
2 | recombinant Clr4 (6xHis-1xFlag-Clr4 and 6xHis-1xMyc-Clr4) (from UniProt O60016 1-490) (enzyme) |  |  |  | binds weakly
